From patent EP2078752A2
Results are given in words; binding and its absence hold for the method and conditions named. For some assays here: In cells and extracts the contact can be indirect. Some entries that bind do so weakly or less than the wild type.

The chains behind the UniProt entries cited, without tags or fusion partners. Where a name states a change or a piece, a line headed by the entry shows the natural chain unless it says otherwise. Residues count along the entry.
UniProt P37173, residues 23-567: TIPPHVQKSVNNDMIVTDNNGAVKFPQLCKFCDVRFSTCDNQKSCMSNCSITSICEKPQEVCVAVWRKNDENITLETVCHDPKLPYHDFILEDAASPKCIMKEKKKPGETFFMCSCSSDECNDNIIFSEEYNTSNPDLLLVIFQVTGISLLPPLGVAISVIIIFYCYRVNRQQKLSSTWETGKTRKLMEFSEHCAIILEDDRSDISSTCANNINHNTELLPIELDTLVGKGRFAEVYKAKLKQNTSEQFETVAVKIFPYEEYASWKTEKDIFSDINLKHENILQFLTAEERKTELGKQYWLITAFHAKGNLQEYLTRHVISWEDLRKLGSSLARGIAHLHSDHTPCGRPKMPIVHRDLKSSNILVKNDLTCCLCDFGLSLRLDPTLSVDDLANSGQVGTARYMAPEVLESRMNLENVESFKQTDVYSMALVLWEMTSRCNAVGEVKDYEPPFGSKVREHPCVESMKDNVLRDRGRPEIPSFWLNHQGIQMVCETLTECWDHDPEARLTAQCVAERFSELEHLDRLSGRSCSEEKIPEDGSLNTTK
UniProt P08476, residues 311-426: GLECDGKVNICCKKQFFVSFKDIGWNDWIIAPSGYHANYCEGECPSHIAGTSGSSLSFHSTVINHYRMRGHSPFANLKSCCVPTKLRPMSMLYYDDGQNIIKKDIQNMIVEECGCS
UniProt P36898: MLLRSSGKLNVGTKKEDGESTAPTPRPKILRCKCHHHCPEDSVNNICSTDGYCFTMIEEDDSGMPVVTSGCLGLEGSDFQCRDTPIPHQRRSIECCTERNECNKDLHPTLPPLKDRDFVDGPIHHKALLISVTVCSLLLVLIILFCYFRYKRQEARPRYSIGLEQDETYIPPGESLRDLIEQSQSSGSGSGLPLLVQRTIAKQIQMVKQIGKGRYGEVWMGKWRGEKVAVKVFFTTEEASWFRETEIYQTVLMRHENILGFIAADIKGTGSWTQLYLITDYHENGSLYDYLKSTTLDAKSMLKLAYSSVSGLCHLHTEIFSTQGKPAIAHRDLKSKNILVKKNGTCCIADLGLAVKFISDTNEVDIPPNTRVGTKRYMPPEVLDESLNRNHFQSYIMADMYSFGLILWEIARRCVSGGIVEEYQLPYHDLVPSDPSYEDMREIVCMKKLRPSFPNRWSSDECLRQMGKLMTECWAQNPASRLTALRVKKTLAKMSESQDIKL

Legend:
[1] = target: T1, endogenous ALK-4 (activin type I receptor) of PAE/Chim A porcine aortic endothelial cells (porcine) (UniProt D3K5N5); assay: affinity cross-linking of 125I-activin A on PAE/Chim A cells then immunoprecipitation
T1 sequence: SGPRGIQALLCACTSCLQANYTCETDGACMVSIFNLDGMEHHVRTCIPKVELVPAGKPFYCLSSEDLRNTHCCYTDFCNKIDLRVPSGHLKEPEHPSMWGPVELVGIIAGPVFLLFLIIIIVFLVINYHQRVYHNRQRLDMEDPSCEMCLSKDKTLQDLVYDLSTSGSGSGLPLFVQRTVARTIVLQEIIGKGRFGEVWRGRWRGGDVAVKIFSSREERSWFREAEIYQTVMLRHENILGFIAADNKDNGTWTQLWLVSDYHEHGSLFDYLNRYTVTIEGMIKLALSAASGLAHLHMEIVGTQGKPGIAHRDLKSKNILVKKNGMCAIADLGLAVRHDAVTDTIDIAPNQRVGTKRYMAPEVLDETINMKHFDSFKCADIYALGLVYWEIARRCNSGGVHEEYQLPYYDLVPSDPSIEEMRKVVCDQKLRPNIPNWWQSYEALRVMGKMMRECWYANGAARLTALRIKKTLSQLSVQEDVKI

[2] = target: human TGF-β type II receptor (TβR-II) (human) (UniProt P37173); assay: co-immunoprecipitation with DRL antiserum after 125I-TGF-β1 cross-linking, co-transfected COS-1 cells

Substance | binding [1] | binding [2]
recombinant human activin A, iodinated (^125I-activin A) (from UniProt P08476 311-426) (ligand) | binds | 
mouse ALK-6 (clone ME-6) (from UniProt P36898 14-502) (receptor) |  | binds
